Laboratory results published in PMC7862700.
This is a selection; strong and weak results do not stand in their true shares. For part of these data: At the low end of the ranking the order means little. The list shows a part of the results. For part of these data: Construct or isoform of the protein are uncertain.

Protein sequences, listed by entry. Tags and fused reporters are not part of them. Lines headed by an entry give the natural chain unless they say otherwise; changes in a name come on top.
UniProt Q00613: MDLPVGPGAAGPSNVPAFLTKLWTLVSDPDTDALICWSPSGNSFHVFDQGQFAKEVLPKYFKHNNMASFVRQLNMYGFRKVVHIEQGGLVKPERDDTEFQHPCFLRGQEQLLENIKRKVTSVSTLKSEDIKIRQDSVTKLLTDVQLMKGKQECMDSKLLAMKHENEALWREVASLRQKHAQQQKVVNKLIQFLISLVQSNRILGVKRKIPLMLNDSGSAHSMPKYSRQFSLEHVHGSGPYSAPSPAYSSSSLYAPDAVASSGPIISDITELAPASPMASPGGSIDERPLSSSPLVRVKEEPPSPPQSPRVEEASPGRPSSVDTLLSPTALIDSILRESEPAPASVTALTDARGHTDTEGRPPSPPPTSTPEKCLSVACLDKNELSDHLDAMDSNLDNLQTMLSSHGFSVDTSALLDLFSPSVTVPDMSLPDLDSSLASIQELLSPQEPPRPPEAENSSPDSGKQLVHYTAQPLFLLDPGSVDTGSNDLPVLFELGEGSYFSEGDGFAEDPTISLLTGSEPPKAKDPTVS

molecular target: HSF1 (UniProt Q00613); test: DAPPL (digital affinity profiling via proximity ligation, sequencing); conditions: 10 mM Tris-HCl pH 7.5, 50 mM NaCl, 1 mM DTT, 4% glycerol, room temperature, 30 min; GST-TFs on glutathione beads, 16-mer random dsDNA library, 0.1% …; high values mean tight binding; double strand, one strand shown; scale: fold enrichment (6-mer frequency, TF over GST control)

Row | Sequence | binding signal
1 | AACTTG | 1.09
2 | AACGGA | 0.723
3 | GTTTGA | 1.03
4 | GATCAC | 0.951
5 | GCAACA | 0.76
6 | GCGAAT | 1.27
7 | CTAGGG | 0.949
8 | CGCTGG | 0.907
9 | CTACAG | 0.957
10 | GTTTAG | 0.892
11 | CGCTAT | 0.908
12 | CAAGCT | 0.933
13 | GCTGGC | 0.943
14 | TCTTTC | 1.82
15 | GGTATG | 0.762
16 | AATGTG | 0.93
17 | TGTCAG | 0.765
18 | GGTTCC | 1.13
19 | TGTGCC | 0.893
20 | TGACTG | 0.943

Row | Sequence | binding signal
21 | CCCGCT | 1.26
22 | TATTTA | 1.75
23 | TGGTTG | 0.793
24 | CGGTCT | 0.862
25 | CGCGCA | 0.939
26 | TTATGC | 1.58
27 | TAACAG | 1.02
28 | ACCAAG | 0.863
29 | ACTGTC | 0.822
30 | CGCCGG | 0.677
31 | TATGTC | 0.893
32 | AAAGTT | 1.43
33 | GCGCCT | 0.985
34 | TCAATG | 0.942
35 | GCACTG | 0.813
36 | TGATTG | 0.923
37 | TTTGTT | 1.3
38 | CGTCAC | 0.924
39 | ATAGTC | 0.946

molecular target: T1, ELF2 (UniProt Q15723); test: as above; conditions: 10 mM Tris-HCl pH 7.5, 50 mM NaCl, 1 mM DTT, 4% glycerol, room temperature, 30 min; GST-TFs on glutathione beads, 16-mer random dsDNA library, 0.1% …; high values mean tight binding; double strand, one strand shown; scale: fold enrichment (6-mer frequency, TF over GST control)
T1 sequence: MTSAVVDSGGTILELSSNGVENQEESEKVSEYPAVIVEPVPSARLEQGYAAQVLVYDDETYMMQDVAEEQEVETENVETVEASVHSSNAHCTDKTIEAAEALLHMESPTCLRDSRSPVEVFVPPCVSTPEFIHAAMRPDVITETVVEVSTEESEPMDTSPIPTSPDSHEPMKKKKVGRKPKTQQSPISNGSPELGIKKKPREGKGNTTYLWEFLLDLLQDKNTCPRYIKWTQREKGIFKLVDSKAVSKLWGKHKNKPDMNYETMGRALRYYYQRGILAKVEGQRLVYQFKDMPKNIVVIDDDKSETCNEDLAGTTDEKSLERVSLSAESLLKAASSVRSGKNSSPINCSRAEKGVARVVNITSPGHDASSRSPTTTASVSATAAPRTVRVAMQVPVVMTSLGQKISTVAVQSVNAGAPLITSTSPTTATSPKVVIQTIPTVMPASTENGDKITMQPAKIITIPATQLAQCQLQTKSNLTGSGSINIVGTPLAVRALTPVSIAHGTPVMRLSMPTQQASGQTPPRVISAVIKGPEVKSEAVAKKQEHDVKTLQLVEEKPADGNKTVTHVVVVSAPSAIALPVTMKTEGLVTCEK

Row | Sequence | binding signal
40 | AACTTG | 1.1
41 | AACGGA | 1.13
42 | GTTTGA | 1.15
43 | GATCAC | 0.918
44 | GCAACA | 0.973
45 | GCGAAT | 1.04
46 | CTAGGG | 0.809
47 | CGCTGG | 0.943
48 | CTACAG | 1.03
49 | GTTTAG | 0.808
50 | CGCTAT | 1.07
51 | CAAGCT | 0.955
52 | GCTGGC | 0.959
53 | TCTTTC | 1.43
54 | GGTATG | 0.943
55 | AATGTG | 0.954
56 | TGTCAG | 0.865
57 | GGTTCC | 1.97
58 | TGTGCC | 1.05
59 | TGACTG | 0.984

Row | Sequence | binding signal
60 | CCCGCT | 1.24
61 | TATTTA | 1.47
62 | TGGTTG | 0.943
63 | CGGTCT | 1.13
64 | CGCGCA | 0.91
65 | TTATGC | 1.27
66 | TAACAG | 1.02
67 | ACCAAG | 0.869
68 | ACTGTC | 0.914
69 | CGCCGG | 1.05
70 | TATGTC | 1.08
71 | AAAGTT | 1.07
72 | GCGCCT | 0.993
73 | TCAATG | 0.987
74 | GCACTG | 1.06
75 | TGATTG | 1
76 | TTTGTT | 1.27
77 | CGTCAC | 1.16
78 | ATAGTC | 0.903
